This is an account of results in publication PMC4065004.

Protein sequences, listed by entry. Tags and fused reporters are not part of them. Residues count along the entry.
GPR56^N, the N-terminal fragment of GPR56 (Q8K209, residues 26-381): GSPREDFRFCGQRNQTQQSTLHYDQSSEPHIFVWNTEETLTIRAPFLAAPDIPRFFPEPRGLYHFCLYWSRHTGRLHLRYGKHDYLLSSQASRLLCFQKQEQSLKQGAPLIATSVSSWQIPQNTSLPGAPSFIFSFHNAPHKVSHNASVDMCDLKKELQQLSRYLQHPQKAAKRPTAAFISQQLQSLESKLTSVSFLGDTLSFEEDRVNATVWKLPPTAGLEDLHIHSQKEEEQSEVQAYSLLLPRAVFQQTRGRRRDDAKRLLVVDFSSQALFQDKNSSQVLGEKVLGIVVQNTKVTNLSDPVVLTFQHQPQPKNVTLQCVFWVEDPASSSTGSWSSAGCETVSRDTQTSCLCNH
GPR56^C, the C-terminal fragment of GPR56 (wild type) (Q8K209, residues 382-687): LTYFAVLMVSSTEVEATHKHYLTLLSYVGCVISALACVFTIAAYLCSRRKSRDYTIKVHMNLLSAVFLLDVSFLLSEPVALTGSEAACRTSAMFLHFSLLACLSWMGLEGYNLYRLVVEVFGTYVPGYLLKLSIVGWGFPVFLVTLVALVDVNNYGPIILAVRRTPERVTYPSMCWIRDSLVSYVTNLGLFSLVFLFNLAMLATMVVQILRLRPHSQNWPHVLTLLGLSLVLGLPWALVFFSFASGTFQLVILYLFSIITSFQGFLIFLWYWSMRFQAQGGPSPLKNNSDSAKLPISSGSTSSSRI

This assay deals with GPR56^C, the C-terminal fragment of GPR56 (wild type) (mouse) (UniProt Q8K209). The assay can be described thus: co-IP; membrane fraction (Mem-PER kit) of HEK 293T cells transfected with wild type or L640R mutant Gpr56 cDNA, stimulated with collagen III or vehicle (acetic acid) for 5 minutes; precipitated with rabbit anti-GPR56^C (199) and protein G-Sepharose; GPR56^N detected with mouse anti-GPR56^N (H11).

These are yes or no findings as the source states them, for the method shown. Binding seen in cells or lysates may run through a third protein. Some binding calls cover weakened binding; strength is not graded here.

On to “GPR56^N, the N-terminal fragment of GPR56 (from UniProt Q8K209 26-381) (domain or fragment)”, for which the binding entry is “binds”.
